These are yes or no findings as the source states them, for the method shown. In cells and extracts the contact can be indirect. Binding calls can cover weak binding; strength is not graded here.
Biological target: RUFY4 ΔFYVE deletion mutant (mouse)
Experiment: co-IP; HEK293T cells transfected to co-express the indicated proteins; lysed in RIPA buffer; lysates incubated with primary antibodies overnight, then protein A-agarose 1 h at 4 °C; immunoblot

binding: binds
B1: LAMP2, expressed in HEK293T cells (protein, UniProt P17047 26-415)
chain: LIVNLTDSKGTCLYAEWEMNFTITYETTNQTNKTITIAVPDKATHDGSSCGDDRNSAKIMIQFGFAVSWAVNFTKEASHYSIHDIVLSYNTSDSTVFPGAVAKGVHTVKNPENFKVPLDVIFKCNSVLTYNLTPVVQKYWGIHLQAFVQNGTVSKNEQVCEEDQTPTTVAPIIHTTAPSTTTTLTPTSTPTPTPTPTPTVGNYSIRNGNTTCLLATMGLQLNITEEKVPFIFNINPATTNFTGSCQPQSAQLRLNNSQIKYLDFIFAVKNEKRFYLKEVNVYMYLANGSAFNISNKNLSFWDAPLGSSYMCNKEQVLSVSRAFQINTFNLKVQPFNVTKGQYSTAQDCSADEDNFLVPIAVGAALGGVLILVLLAYFIGLKRHHTGYEQF

Source: publication PMC11094054
